Measured values: patent US20260207585A1, “METHODS AND COMPOSITIONS FOR THE TREATMENT OF PARKINSON'S DISEASE, HUNTINGTON'S DISEASE, AMYOTROPHIC LATERAL SCLEROSIS, AND LEARNING DISORDERS” (Cedars-Sinai Medical Center, priority 2022, published 2026)

Tested on: soluble fraction of brain homogenates
Assay: Mass spectrometry proteomics of brain homogenates with IPA
Type: in vivo
Settings: ETP69-treated vs DMSO-treated AD+ mice
Description: The results included levodopa (L-dopa), a naturally occurring product that is also a drug for the management of Parkinson's motor symptoms.
Mass spectrometry (MS) analysis on the soluble fraction of brain homogenates extracted from the […] WT and neurodegenerative (AD) mice cohort was performed (DMSO-treated WT mice: n=8; ETP69-treated WT mice: n=7; DMSO-treated AD^+ mice: n=6; ETP69-treated AD^+ n=6).
The effects of ETP69 on the molecular pathways related to neuroprotection and cognitive function was assessed.

CN1C(=O)[C@@]23C[C@](C)(C#N)[C@H](c4ccc5c(c4)OCO5)N2C(=O)[C@]1(C)SS3 (racemic) [ETP69, Rac-(3S,6S,7S,8aS)-6-(benzo[d][1,3]dioxol-5-yl)-2,3,7-trimethyl-1,4-dioxohexahydro-6H-3,8a-epidithiopyrrolo[1,2-a]pyrazine-7-carbonitrile]
IPA upstream regulator activation z score, BDNF: 2.42
IPA upstream regulator activation z score, GABA: 2.50
IPA upstream regulator activation z score, Rictor: 3.59
